PubChem BioAssay AID504764 | Drosophila RNAi Screening Center – 2011
The deposit covers about 22,000 reagents; below is an unselected part of those with a known target gene and a result. In the full data, 403 (1.9%) are marked active. 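Unnormalised raw counts per well; ratio z-scores behind the hit calls and whether each hit raises or lowers signal are not deposited.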 The numbers tell different reagents against one gene apart. A plus sign joins genes that one reagent is predicted to hit. No sequences are given here. The record does not give: the amount of reagent.

- Purpose: 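Knock-downs that raise or lower a Notch target reporter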 (primary screen)
- Cell system: Drosophila Kc167 cells
- Reagents: long dsRNA against Drosophila genes
- Duration: about 5 days (4 days dsRNA, then 24 h after transfection)
- Conditions: transfection of constitutively active membrane-tethered Notch lacking the extracellular domain, read 24 h later
- Measured: 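Light from a Notch-responsive E(spl)m3 luciferase reporter under active Notch, with control-promoter and no-Notch reporter wells to normalise; raw counts from paired wells a and b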
- Reading the numbers: induced reporter light, run 1, well a and induced reporter light, run 1, well b: higher = more light from the Notch target reporter with active Notch; control promoter light, run 1, well a and control promoter light, run 1, well b: higher = more light from the viral control promoter (cell number, transfection, viability); uninduced reporter light, run 1, well a: higher = more light from the Notch target reporter without active Notch
- Active means: 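Hit if the duplicate-averaged log2 ratio of induced to control-promoter light gives a plate-wise z beyond ±2, or induced to uninduced beyond ±1.8; weak-control or discordant-duplicate wells dropped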
- Meaning of the calls: active = modifier hit (raised or lowered Notch signal); inactive = not a hit

Target gene	dsRNA no.	induced reporter light, run 1, well a	induced reporter light, run 1, well b	control promoter light, run 1, well a	control promoter light, run 1, well b	uninduced reporter light, run 1, well a	outcome
elB (GeneID 34844)	1	91870	65135	69640	59805	7185	inactive
elB (GeneID 34844)	2	1.39e5	1.37e5	1.37e5	1.08e5	10820	inactive
Amy-p (GeneID 47764)	1	95920	1.01e5	1.08e5	1.50e5	9225	inactive
Epg5 (GeneID 42256)	1	2.35e5	2.16e5	1.97e5	1.89e5	13855	inactive
nompB (GeneID 35414)	1	44375	41980	53735	37340	2300	inactive
nompB (GeneID 35414)	2	48715	47320	49880	71305	2540	inactive
CG16868 (GeneID 37298)	1	83765	93085	1.83e5	2.00e5	8400	inactive
CG43333 (GeneID 34830)	1	99060	1.18e5	80005	88720	9925	inactive
CG14968 (GeneID 38406)	1	1.56e5	1.33e5	2.11e5	3.03e5	5870	inactive
Rala (GeneID 31332)	1	1.80e5	2.12e5	3.53e5	3.34e5	12600	inactive
ImpE1 (GeneID 45879)	1	2.05e5	1.92e5	2.19e5	1.89e5	9120	inactive
ImpE1 (GeneID 45879)	2	1.78e5	2.02e5	1.77e5	1.84e5	8125	inactive
CG7730 (GeneID 39908)	1	1.03e5	1.45e5	64990	73480	9020	inactive
Wdr59 (GeneID 34540)	1	2.47e5	2.10e5	1.82e5	1.98e5	17060	inactive
CG12360 (retired record) (GeneID 41603)	1	2.23e5	2.00e5	2.02e5	2.15e5	15475	inactive
CG12692 (GeneID 31372)	1	1.57e5	1.45e5	2.08e5	2.17e5	10250	inactive
CG31156 (GeneID 42669)	1	1.11e5	1.24e5	1.21e5	1.39e5	10120	inactive
CG31156 (GeneID 42669)	2	1.72e5	1.97e5	2.37e5	1.92e5	15700	inactive
CG13829 (GeneID 42740)	1	1.74e5	1.48e5	2.05e5	1.99e5	12800	inactive
DptB (GeneID 37184)	1	87925	77600	1.01e5	89190	7205	inactive
CG13042 (GeneID 39798)	1	2.20e5	1.49e5	2.08e5	38005	12210	inactive
CG13022 (GeneID 39896)	1	90675	97645	1.15e5	1.13e5	6650	inactive
CkIIalpha (GeneID 48448)	1	32800	34255	36750	27285	1860	inactive
Gyc32E (GeneID 34553)	1	82975	1.09e5	1.14e5	1.13e5	7565	inactive
Obp50c + Obp50b	1	1.85e5	2.99e5	3.08e5	3.90e5	16525	inactive
Fie (GeneID 38452)	1	1.27e5	1.16e5	95910	35960	8725	inactive
Fmr1 (GeneID 37528)	1	91375	99705	82700	75470	4800	inactive
CG9394 (GeneID 37399)	1	37820	35740	48815	35715	2155	inactive
CG12481 (GeneID 32364)	1	84505	74345	99890	86275	13375	inactive
CG7369 (GeneID 2768961)	1	84765	98820	52815	51545	8060	inactive
twr (GeneID 40815)	1	45035	43310	37175	38420	3370	inactive
CG5388 (GeneID 42612)	1	1.58e5	1.33e5	1.64e5	1.60e5	11660	inactive
CG32050 (retired record) (GeneID 39154)	1	1.09e5	77470	67140	66325	8680	inactive
CG30098 (GeneID 246456)	1	1.26e5	1.62e5	1.51e5	1.85e5	9160	inactive
Or43b (GeneID 35743)	1	2.36e5	1.80e5	2.30e5	2.19e5	16515	inactive
CG9550 (GeneID 33913)	1	1.60e5	1.77e5	1.53e5	1.69e5	10745	inactive
CG32712 (GeneID 318165)	1	2.01e5	1.77e5	3.20e5	3.09e5	13850	inactive
CROT (GeneID 43332)	1	1.62e5	1.35e5	1.94e5	1.94e5	12535	inactive
CROT (GeneID 43332)	2	1.25e5	1.23e5	1.52e5	1.36e5	11610	inactive
CG3734 (GeneID 42318)	1	1.92e5	1.61e5	2.27e5	2.21e5	14730	inactive
RpL27 (GeneID 43103)	1	21365	19355	22085	16120	1605	inactive
msl-3 (GeneID 38779)	1	2.15e5	2.07e5	2.32e5	2.65e5	10520	inactive
Usp1 (GeneID 43462)	1	2.26e5	2.19e5	2.52e5	3.11e5	15650	inactive
Yp2 (GeneID 31938)	1	1.61e5	1.63e5	1.91e5	1.77e5	12445	inactive
ebd1 (GeneID 38082)	1	1.13e5	1.07e5	1.43e5	1.52e5	10690	inactive
Syx13 (GeneID 39485)	1	1.21e5	1.12e5	94145	90470	7260	active
CG16989 (GeneID 31026)	1	1.04e5	89205	1.82e5	1.61e5	7460	inactive
sip1 (GeneID 44238)	1	27950	28740	19515	21050	2080	inactive
sip1 (GeneID 44238)	2						inactive
Cypl (GeneID 38069)	1	1.22e5	1.22e5	1.86e5	1.47e5	9680	inactive
